Test results taken from PubChem BioAssay AID2517 (National Center for Advancing Translational Sciences (NCATS), 2010).
“And” between values parts separate entries of the source, which are not always exact repeats. Identical values can stand only once. Screen size: about 350,000 compounds; about 1,200 (0.34%) were called active. The shares of active, inactive and inconclusive entries below differ from those in the screen. Calls come from the whole dose curve; as a rule, active = well fitted inhibition curve with a large enough effect; inconclusive = small, poorly fitted or top-dose-only effect; inactive = no such curve, though single readings can be large or run the other way. A potency beside an inconclusive call is a rough fit, not a confirmed value.

Protein sequences, listed by entry. Tags and fused reporters are not part of them.
UniProt P27695, whole entry, looked up: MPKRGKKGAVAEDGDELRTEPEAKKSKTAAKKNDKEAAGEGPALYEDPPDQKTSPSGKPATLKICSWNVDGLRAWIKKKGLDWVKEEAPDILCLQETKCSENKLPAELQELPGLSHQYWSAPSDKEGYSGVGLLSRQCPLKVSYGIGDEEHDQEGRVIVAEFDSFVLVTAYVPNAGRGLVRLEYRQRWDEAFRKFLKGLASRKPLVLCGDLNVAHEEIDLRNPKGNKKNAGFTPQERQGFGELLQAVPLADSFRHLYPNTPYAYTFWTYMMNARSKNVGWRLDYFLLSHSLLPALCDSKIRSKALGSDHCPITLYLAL

Molecular target: DNA repair nuclease/redox regulator APEX1 (Homo sapiens) (UniProt P27695)
Test: qHTS Assay for Inhibitors of the Human Apurinic/apyrimidinic Endonuclease 1 (APE1); note: nearly all actives have a fitted effect of over 55% in size;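 for activity change, negative = inhibition: plate controls were vehicle for no effect and reference inhibitor for full effect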
Conditions: recombinant APE1, TAMRA/BHQ-2 abasic DNA cleavage fluorescence; activity change, negative = inhibition: at 65.8 µM (top of the series)
Summary of the method: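 Substrate: short duplex with […] THF abasic site, 5'-TAMRA and 3'-BHQ-2, 50 nM final. APE1 at 0.75 nM, preincubated 15 min RT with compound. Fluorescence increase from first to third read measured activity.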
Potency is the fitted concentration of half-maximal effect.

SMILES	Potency	activity change, negative = inhibition
O=C(c1ccc(C(F)(F)F)cc1)N1CCC(=O)N(C(COCc2ccc(C(F)(F)F)cc2)Cc2ccccc2)CC1 (stereo unspecified)	inconclusive: 3.55 µM [inhibitor, single point]	–
O=C(CNC(=O)C1COc2ccccc2O1)N/N=C\c1ccccc1Cl (stereo unspecified)	–	inactive: 79.6%
COCCNc1c2c(nc3c(-c4ccccc4)c(C)nn13)CCC2	inconclusive: 2.82 µM [inhibitor, single point]	–
CN(C)S(=O)(=O)c1cccc(NC(=O)C2Cc3ccccc3CN2C(=O)c2ccco2)c1 (stereo unspecified)	–	inactive: 79.6%
COC(=O)C1=C[C@@H](C(=O)OC)[C@@H]2C3=C(C(=O)C2(C)C)[C@H](c2ccccc2)[C@@H]2C(=O)N(c4ccccc4)C(=O)[C@@H]2[C@@H]3C1	–	inactive: -7.31%
CC(/C=C/C1(O)C(C)CC(O)CC1(C)C)OC1OC(CO)C(O)C(O)C1O (stereo unspecified)	inconclusive: 15.8 µM [inhibitor, partial curve, poor fit]	–
COc1ccc(-c2csc(N3CCN(c4cc(C)nc5ccccc45)CC3)n2)cc1OC	inconclusive: 39.8 µM [inhibitor, single point]	–
COc1ccc(/C=C/C(=O)NC(=S)NNC(=O)c2cnccn2)cc1	–	inactive: -0.7%
Cc1sc2ncnc(NCc3ccco3)c2c1C	inconclusive: 39.8 µM [inhibitor, single point]	–
COc1ccc([C@]23Cc4ccccc4C(O2)C2=C(O3)C(=O)c3ccccc3C2=O)cc1	–	inactive: 14.4% [at 12.4 µM]
COc1cc(C(=O)N(Cc2ccc(F)cc2)C2CCS(=O)(=O)C2)cc(OC)c1OC (stereo unspecified)	inconclusive: 44.7 µM [inhibitor, single point]	–
Nc1nc(N)c2cc(Sc3ccc4ccccc4c3)ccc2n1	–	inactive: -0.363%
Cc1ccc(Cc2cc(C)n[nH]c2=O)cc1	inconclusive: 2.51 µM [inhibitor, partial curve, poor fit]	–
CCC(=O)c1ccc(N2CCN(C(=O)c3ccc(F)cc3)CC2)c(F)c1	inconclusive: 7.94 µM [inhibitor, partial curve]	–
C=C(C)C(O)/C=C/c1ccc(OC)cc1 (stereo unspecified)	inconclusive: 7.94 µM [inhibitor, single point]	–
COc1ccc(C(=O)C2CCCCC2=O)cc1 (stereo unspecified)	inconclusive: 1.58 µM [inhibitor, partial curve]	–
Cc1ccc(-n2cc(CNCCN3CCOC3=O)c(-c3ccc(F)cc3)n2)cc1	inconclusive: 0.0251 µM [inhibitor, full curve]	–
Cc1cc(C)c2c(n1)sc1c(O)cc(=O)[nH]c12	inconclusive: 12.6 µM [inhibitor, partial curve]	–
CC(C)c1ccccc1NC(=O)COc1ccc2c(=O)c(Oc3ccc4ccccc4c3)coc2c1	inconclusive: 31.6 µM [inhibitor, single point]	–
Cc1ccc(C2CC(=O)Oc3cc(C)c(Cl)c(C)c32)cc1 (stereo unspecified)	inconclusive: 15.8 µM [inhibitor, partial curve, poor fit]	–
CCOc1ccc(N=Cc2c(O)c3ccccc3oc2=O)cc1	inconclusive: 44.7 µM [inhibitor, single point]	–
COc1cccc(C#Cc2c(C=O)n(C)c3ccccc23)c1	–	inactive: 5.49%

SMILES	Potency	activity change, negative = inhibition
CSc1nc(C)nc(C2CC2)c1C#N	inconclusive: 0.001 µM [inhibitor, full curve, poor fit]	–
O=C(N/N=C/c1c(O)ccc2ccccc12)c1ccc[n+](CCO)c1	–	inactive: -5.83%
Cc1cc2nc3c(=O)[nH]c(=O)nc-3n(CC(O)C(O)C(O)CO)c2cc1C (stereo unspecified)	inactive and inconclusive: 44.7 µM [inhibitor, partial curve, poor fit]	–
O=c1c(Cl)c(NCC2CCCO2)cnn1C12CC3CC(CC(C3)C1)C2 (stereo unspecified)	inconclusive: 0.224 µM [inhibitor, full curve, poor fit]	–
C[C@@H]1CC=C[C@H]2[C@H]1C(=O)N(Cc1ccccc1)[C@H]2c1ccc(F)c(Br)c1	inconclusive: 39.8 µM [inhibitor, single point]	–
CC(=O)NCc1ccc(C(=O)CSc2nnc(-c3ccncc3)n2Cc2ccccc2)o1	inconclusive: 25.1 µM [inhibitor, partial curve]	–
O=C(C1=C(O)C(=O)N(c2nccs2)C1c1ccccc1)c1cc2ccccc2o1 (stereo unspecified)	–	inactive: 1.66%
Cc1n[nH]c(C)c1CCC(=O)N/N=C/c1cccs1	inconclusive: 3.16 µM [inhibitor, single point]	–
N#Cc1c(Nc2ccccc2)c(/C=N/NCCO)c[nH]c1=O	–	inactive: 1.75%
CCOC(=O)c1c(C)n(C)c2ccc(OCC(O)Cn3c(C)nc4ccccc43)cc12 (stereo unspecified)	inconclusive: 12.6 µM [inhibitor, partial curve]	–
CS(=O)(=O)Nc1cccc(-c2cc(NCc3cccs3)ncn2)c1	inconclusive: 44.7 µM [inhibitor, single point]	–
O=C(NCc1ccccc1)c1ccc(-c2ccccc2C(F)(F)F)o1	inconclusive: 7.08 µM [inhibitor, single point]	–
O=C(N/N=C/c1ccc2cccnc2c1)c1ccco1	inconclusive: 25.1 µM [inhibitor, partial curve, poor fit]	–
Cc1ccc(S(=O)(=O)N(C)C)cc1NC(=O)COC(=O)/C(=C/c1ccc(F)cc1)c1cccs1	inconclusive: 10 µM [inhibitor, partial curve]	–
CC1Sc2ccc(S(=O)(=O)N3CCC(C(=O)Nc4ccc(Cl)cc4)CC3)cc2NC1=O (stereo unspecified)	–	inactive: -5.1%
O=C1CC(c2cccc(Cl)c2)CC(O)=C1C=NC1CCCC1 (stereo unspecified)	inconclusive: 0.199 µM [inhibitor, full curve]	–
Cc1nn(C)cc1/C=N/NC(=O)Cn1cncn1	–	inactive: -0.804%
CCOC(=O)C1=C(CSc2nc3ccccc3s2)NC(=O)NC1c1cccc([N+](=O)[O-])c1 (stereo unspecified)	inconclusive: 0.0251 µM [inhibitor, full curve]	–
Nc1nc(-c2ccccc2)nc2sc3c(c12)CCCC3	inconclusive: 22.4 µM [inhibitor, partial curve, poor fit]	–
COCc1cc(=O)n2[nH]c(-c3cccs3)cc2n1	inconclusive: 3.16 µM [inhibitor, partial curve]	–
Cc1nc2ccccc2c(=O)n1Nc1cccc(Cl)c1	inconclusive: 7.08 µM [inhibitor, partial curve]	–
O=S(=O)(c1ccccc1)N1CCN(CC2CC3C=CC2C3)CC1 (stereo unspecified)	inconclusive: 44.7 µM [inhibitor, single point]	–

SMILES	Potency	activity change, negative = inhibition
O=C(/C=C/NCC(=O)c1ccccc1)c1ccc(Br)cc1	inconclusive: 7.08 µM [inhibitor, single point]	–
CC1(C)Cc2ccccc2C(NNC(=O)c2ccccn2)=N1	–	inactive: 9.99%
CCOC(=O)c1[nH]c2c(c1-c1ccccc1)C(=O)CC(c1ccc(OC)c(OC)c1)C2 (stereo unspecified)	inconclusive: 5.01 µM [inhibitor, partial curve]	–
COc1ccc(C(=O)NCc2cc(C)nc3ccccc23)cc1	inconclusive: 0.562 µM [inhibitor, full curve, poor fit]	–
Cc1nc2ccccc2c2nc3ccccc3n12	–	inactive: 21.7%
COc1ccccc1N1CCN(S(=O)(=O)c2ccc3nc(-c4ccccc4)[nH]c3c2)CC1	inconclusive: 35.5 µM [inhibitor, single point]	–
CCc1ccc(-n2cccc2/C=C2/C(=N)N3C(=NC2=O)SN=C3S(C)(=O)=O)cc1	inconclusive: 25.1 µM [inhibitor, partial curve]	–
Cc1noc(C)c1-c1ccc2ncnc(NCc3cccc(C(F)(F)F)c3)c2c1	–	inactive: -7.06%
COc1cc(/C=C/c2[nH]c(=O)[nH]c(=O)c2[N+](=O)[O-])cc([N+](=O)[O-])c1O	–	inactive: -10.1%
CN(C)C(=O)Nc1ccc(Cl)c(Cl)c1	inconclusive: 20 µM [inhibitor, single point]	–
N#C/C(=C\c1ccc(Sc2ccccc2)o1)c1nc2ccccc2[nH]1	inconclusive: 17.8 µM [inhibitor, partial curve, poor fit]	–
CC1CCCCN1S(=O)(=O)c1coc(C(N)=O)c1 (stereo unspecified)	inconclusive: 44.7 µM [inhibitor, single point]	–
C=CCSc1nn2c(=O)c3ccccc3nc2s1	inconclusive: 447 µM [inhibitor, partial curve, poor fit]	–
COc1cc(/C=N/NC(=O)c2cc(-c3ccccc3)sc2N)cc(OC)c1OC	inconclusive: 44.7 µM [inhibitor, single point]	–
CCOC(=O)c1sc(N2N=C(C)C(N=Nc3cccc(C)c3)C2=O)nc1C (stereo unspecified)	inconclusive: 0.126 µM [inhibitor, full curve, poor fit]	–
Cc1ccc(CNC(=O)CCNC(=O)c2ccco2)cc1	inconclusive: 0.0501 µM [inhibitor, full curve, poor fit]	–
Cc1ncc([N+](=O)[O-])n1CCOC(=O)NC(Nc1ccc(F)cc1)C(Cl)(Cl)Cl (stereo unspecified)	–	inactive: -17.9%
O=C(O)Cc1ccc(NC(=O)c2ccc(NC(=O)c3ccco3)cc2)cc1	–	inactive: -4.29%
CC(=O)N1C=CN(C(C)=O)C(c2cn(C)c3ccccc23)C1c1cn(C)c2ccccc12 (stereo unspecified)	inconclusive: 44.7 µM [inhibitor, single point]	–
Cc1ccc2nc(NC(=O)C3CCN(S(=O)(=O)c4cc([N+](=O)[O-])ccc4Cl)CC3)sc2c1	inconclusive: 14.1 µM [inhibitor, partial curve]	–
COc1cccc(-n2c(C)c(C(C)=O)c(C(C)=O)c2C)c1	inconclusive: 44.7 µM [inhibitor, single point]	–
COC(=O)N/N=C/c1ccc(-c2ccc(Cl)c(Cl)c2)o1	inconclusive: 39.8 µM [inhibitor, single point]	–
